The assay addresses APP 751 (UniProt P05067). Description: co-immunoprecipitation from HEK293FT lysates, western blot (FIG. 26A). A general note: A western blot detects proteins with antibodies after separation by electrophoresis.

Binding data for 1 molecule are collected here from patent publication US20260184774A1.

These are yes or no findings as the source states them, for the method shown. In cells and extracts the contact can be indirect. Some entries that bind do so weakly or less than the wild type.

B1: CNTN4 #10 (full length, Ig1 to FN4) (protein, UniProt Q8IWV2 19-1000, looked up)
chain: DDSTLHGPIFIQEPSPVMFPLDSEEKKVKLNCEVKGNPKPHIRWKLNGTDVDTGMDFRYSVVEGSLLINNPNKTQDAGTYQCTATNSFGTIVSREAKLQFAYLDNFKTRTRSTVSVRRGQGMVLLCGPPPHSGELSYAWIFNEYPSYQDNRRFVSQETGNLYIAKVEKSDVGNYTCVVTNTVTNHKVLGPPTPLILRNDGVMGEYEPKIEVQFPETVPTAKGATVKLECFALGNPVPTIIWRRADGKPIARKARRHKSNGILEIPNFQQEDAGLYECVAENSRGKNVARGQLTFYAQPNWIQKINDIHVAMEENVFWECKANGRPKPTYKWLKNGEPLLTRDRIQIEQGTLNITIVNLSDAGMYQCLAENKHGVIFSNAELSVIAVGPDFSRTLLKRVTLVKVGGEVVIECKPKASPKPVYTWKKGRDILKENERITISEDGNLRIINVTKSDAGSYTCIATNHFGTASSTGNLVVKDPTRVMVPPSSMDVTVGESIVLPCQVTHDHSLDIVFTWSFNGHLIDFDRDGDHFERVGGQDSAGDLMIRNIQLKHAGKYVCMVQTSVDRLSAAADLIVRGPPGPPEAVTIDEITDTTAQLSWRPGPDNHSPITMYVIQARTPFSVGWQAVSTVPELIDGKTFTATVVGLNPWVEYEFRTVAANVIGIGEPSRPSEKRRTEEALPEVTPANVSGGGGSKSELVITWETVPEELQNGRGFGYVVAFRPYGKMIWMLTVLASADASRYVFRNESVHPFSPFEVKVGVFNNKGEGPFSPTTVVYSAEEEPTKPPASIFARSLSATDIEVFWASPLEKNRGRIQGYEVKYWRHEDKEENARKIRTVGNQTSTKITNLKGSVLYHLAVKAYNSAGTGPSSATVNVTTRKPPPSQPPGNIIWNSSDSKIILNWDQVKALDNESEVKGYKVLYRWNRQSSTSVIETNKTSVELSLPFDEDYIIEIKPFSDGGDGSSSEQIRIPKISNAYARGS
In the case of B1, the binding entry is listed as “binds”.
